{"source": "PubChem BioAssay AID1259405 | NCATS – 2018", "purpose": "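Knock-downs that lift recombinant protein yield in hamster ovary cells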 (primary screen)", "cell system": "Chinese hamster CHO-K1 ovary cells with stable secreted eGFP expression", "reagent": "single siRNA against mouse genes, 0.8 pmol siRNA per well (2 µl of 400 nM stock)", "duration": "3 days", "measurement": "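Per-well intracellular GFP measured by laser scanning cytometry, plus viability from ATP luminescence, each relative to plate median of non-targeting control wells, in %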", "scale": "GFP, % of control: higher = more GFP per well, higher productivity; viability (ATP), % of control: higher = more viable cells (more ATP)", "call rule": "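a knock-down is called active if GFP reaches 120% or more of non-targeting control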", "note": "Shown is a random part of about 50,000 reagents tested. About 4,000 of them (8%) count as active. 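Mouse siRNA library applied to hamster cells; one well for each siRNA.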 The numbers tell different reagents against one gene apart."}
{"target gene": "Cxxc1 (CXXC finger protein 1)", "reagent": 1, "GFP, % of control": 49.8, "viability (ATP), % of control": 59.9, "outcome": "inactive"}
{"target gene": "Cxxc1 (CXXC finger protein 1)", "reagent": 2, "GFP, % of control": 70.7, "viability (ATP), % of control": 71.5, "outcome": "inactive"}
{"target gene": "Cxxc1 (CXXC finger protein 1)", "reagent": 3, "GFP, % of control": 52.6, "viability (ATP), % of control": 63.5, "outcome": "inactive"}
{"target gene": "Dysf (dysferlin)", "reagent": 1, "GFP, % of control": 71.1, "viability (ATP), % of control": 58.4, "outcome": "inactive"}
{"target gene": "Dysf (dysferlin)", "reagent": 2, "GFP, % of control": 74.6, "viability (ATP), % of control": 83.9, "outcome": "inactive"}
{"target gene": "Dysf (dysferlin)", "reagent": 3, "GFP, % of control": 90.1, "viability (ATP), % of control": 83.2, "outcome": "inactive"}
{"target gene": "Or6a2 (olfactory receptor family 6 subfamily A member 2)", "reagent": 1, "GFP, % of control": 91.6, "viability (ATP), % of control": 52.5, "outcome": "inactive"}
{"target gene": "Or6a2 (olfactory receptor family 6 subfamily A member 2)", "reagent": 2, "GFP, % of control": 73.9, "viability (ATP), % of control": 72.4, "outcome": "inactive"}
{"target gene": "Or6a2 (olfactory receptor family 6 subfamily A member 2)", "reagent": 3, "GFP, % of control": 118, "viability (ATP), % of control": 104, "outcome": "inactive"}
{"target gene": "Ak2 (adenylate kinase 2)", "reagent": 1, "GFP, % of control": 70.7, "viability (ATP), % of control": 66.8, "outcome": "inactive"}
{"target gene": "Bacc1 (BPTF associated chromatin complex component 1)", "reagent": 1, "GFP, % of control": 111, "viability (ATP), % of control": 102, "outcome": "inactive"}
{"target gene": "Bacc1 (BPTF associated chromatin complex component 1)", "reagent": 2, "GFP, % of control": 107, "viability (ATP), % of control": 78.6, "outcome": "inactive"}
{"target gene": "Bacc1 (BPTF associated chromatin complex component 1)", "reagent": 3, "GFP, % of control": 50.9, "viability (ATP), % of control": 42.5, "outcome": "inactive"}
{"target gene": "Hoga1 (4-hydroxy-2-oxoglutarate aldolase 1)", "reagent": 1, "GFP, % of control": 76.1, "viability (ATP), % of control": 82.6, "outcome": "inactive"}
{"target gene": "Hoga1 (4-hydroxy-2-oxoglutarate aldolase 1)", "reagent": 2, "GFP, % of control": 52.4, "viability (ATP), % of control": 50.9, "outcome": "inactive"}
{"target gene": "Hoga1 (4-hydroxy-2-oxoglutarate aldolase 1)", "reagent": 3, "GFP, % of control": 69.4, "viability (ATP), % of control": 82.8, "outcome": "inactive"}
{"target gene": "Ccl4 (C-C motif chemokine ligand 4)", "reagent": 1, "GFP, % of control": 94.6, "viability (ATP), % of control": 115, "outcome": "inactive"}
{"target gene": "Ccl4 (C-C motif chemokine ligand 4)", "reagent": 2, "GFP, % of control": 38.1, "viability (ATP), % of control": 60.8, "outcome": "inactive"}
{"target gene": "Snip1 (Smad nuclear interacting protein 1)", "reagent": 1, "GFP, % of control": 88.8, "viability (ATP), % of control": 63.3, "outcome": "inactive"}
{"target gene": "Snip1 (Smad nuclear interacting protein 1)", "reagent": 2, "GFP, % of control": 94.2, "viability (ATP), % of control": 74.9, "outcome": "inactive"}
{"target gene": "Snip1 (Smad nuclear interacting protein 1)", "reagent": 3, "GFP, % of control": 50.7, "viability (ATP), % of control": 50.4, "outcome": "inactive"}
{"target gene": "N4bp2l2 (NEDD4 binding protein 2-like 2)", "reagent": 1, "GFP, % of control": 37.2, "viability (ATP), % of control": 46.4, "outcome": "inactive"}
{"target gene": "N4bp2l2 (NEDD4 binding protein 2-like 2)", "reagent": 2, "GFP, % of control": 56.7, "viability (ATP), % of control": 78.5, "outcome": "inactive"}
{"target gene": "N4bp2l2 (NEDD4 binding protein 2-like 2)", "reagent": 3, "GFP, % of control": 85.5, "viability (ATP), % of control": 79.1, "outcome": "inactive"}
{"target gene": "Or6b1 (olfactory receptor family 6 subfamily B member 1)", "reagent": 1, "GFP, % of control": 145, "viability (ATP), % of control": 64.1, "outcome": "active"}
{"target gene": "Or6b1 (olfactory receptor family 6 subfamily B member 1)", "reagent": 2, "GFP, % of control": 100, "viability (ATP), % of control": 88.2, "outcome": "inactive"}
{"target gene": "Or6b1 (olfactory receptor family 6 subfamily B member 1)", "reagent": 3, "GFP, % of control": 89.1, "viability (ATP), % of control": 72.2, "outcome": "inactive"}
{"target gene": "Heg1 (heart development protein with EGF-like domains 1)", "reagent": 1, "GFP, % of control": 44.1, "viability (ATP), % of control": 48, "outcome": "inactive"}
{"target gene": "Heg1 (heart development protein with EGF-like domains 1)", "reagent": 2, "GFP, % of control": 88.8, "viability (ATP), % of control": 48.4, "outcome": "inactive"}
{"target gene": "Heg1 (heart development protein with EGF-like domains 1)", "reagent": 3, "GFP, % of control": 53.9, "viability (ATP), % of control": 48.8, "outcome": "inactive"}
{"target gene": "Heg1 (heart development protein with EGF-like domains 1)", "reagent": 4, "GFP, % of control": 71.2, "viability (ATP), % of control": 93.1, "outcome": "inactive"}
{"target gene": "Heg1 (heart development protein with EGF-like domains 1)", "reagent": 5, "GFP, % of control": 54.6, "viability (ATP), % of control": 52, "outcome": "inactive"}
{"target gene": "Heg1 (heart development protein with EGF-like domains 1)", "reagent": 6, "GFP, % of control": 75, "viability (ATP), % of control": 80.4, "outcome": "inactive"}
{"target gene": "Samm50 (SAMM50 sorting and assembly machinery component)", "reagent": 1, "GFP, % of control": 51.9, "viability (ATP), % of control": 50.9, "outcome": "inactive"}
{"target gene": "Samm50 (SAMM50 sorting and assembly machinery component)", "reagent": 2, "GFP, % of control": 68.2, "viability (ATP), % of control": 88.6, "outcome": "inactive"}
{"target gene": "Samm50 (SAMM50 sorting and assembly machinery component)", "reagent": 3, "GFP, % of control": 109, "viability (ATP), % of control": 52.7, "outcome": "inactive"}
{"target gene": "Pals2 (protein associated with LIN7 2, MAGUK family member)", "reagent": 1, "GFP, % of control": 83.2, "viability (ATP), % of control": 84.2, "outcome": "inactive"}
{"target gene": "Pals2 (protein associated with LIN7 2, MAGUK family member)", "reagent": 2, "GFP, % of control": 133, "viability (ATP), % of control": 133, "outcome": "active"}
{"target gene": "Pals2 (protein associated with LIN7 2, MAGUK family member)", "reagent": 3, "GFP, % of control": 95.6, "viability (ATP), % of control": 87.3, "outcome": "inactive"}
{"target gene": "Pals2 (protein associated with LIN7 2, MAGUK family member)", "reagent": 4, "GFP, % of control": 115, "viability (ATP), % of control": 88.2, "outcome": "inactive"}

Active calls, among the entries above:
{"target gene": "Or6b1 (olfactory receptor family 6 subfamily B member 1)", "reagent": 1, "GFP, % of control": 145, "viability (ATP), % of control": 64.1, "outcome": "active"}
{"target gene": "Pals2 (protein associated with LIN7 2, MAGUK family member)", "reagent": 2, "GFP, % of control": 133, "viability (ATP), % of control": 133, "outcome": "active"}
